Results published in patent US11220671B2, “Methods for the maturation of cardiomyocytes on amniotic fluid cell-derived ECM, cellular constructs, and uses for cardiotoxicity and proarrhythmic screening of drug compounds” (STEMBIOSYS, INC., priority 2019, dated 2022).

B1: Matrin-3 (protein, UniProt P43243 2-847, looked up)
Matrin-3: SKSFQQSSLSRDSQGHGRDLSAAGIGLLAAATQSLSMPASLGRMNQGTARLASLMNLGMSSSLNQQGAHSALSSASTSSHNLQSIFNIGSRGPLPLSSQHRGDADQASNILASFGLSARDLDELSRYPEDKITPENLPQILLQLKRRRTEEGPTLSYGRDGRSATREPPYRVPRDDWEEKRHFRRDSFDDRGPSLNPVLDYDHGSRSQESGYYDRMDYEDDRLRDGERCRDDSFFGETSHNYHKFDSEYERMGRGPGPLQERSLFEKKRGAPPSSNIEDFHGLLPKGYPHLCSICDLPVHSNKEWSQHINGASHSRRCQLLLEIYPEWNPDNDTGHTMGDPFMLQQSTNPAPGILGPPPPSFHLGGPAVGPRGNLGAGNGNLQGPRHMQKGRVETSRVVHIMDFQRGKNLRYQLLQLVEPFGVISNHLILNKINEAFIEMATTEDAQAAVDYYTTTPALVFGKPVRVHLSQKYKRIKKPEGKPDQKFDQKQELGRVIHLSNLPHSGYSDSAVLKLAEPYGKIKNYILMRMKSQAFIEMETREDAMAMVDHCLKKALWFQGRCVKVDLSEKYKKLVLRIPNRGIDLLKKDKSRKRSYSPDGKESPSDKKSKTDGSQKTESSTEGKEQEEKSGEDGEKDTKDDQTEQEPNMLLESEDELLVDEEEAAALLESGSSVGDETDLANLGDVASDGKKEPSDKAVKKDGSASAAAKKKLKKVDKIEELDQENEAALENGIKNEENTEPGAESSENADDPNKDTSENADGQSDENKDDYTIPDEYRIGPYQPNVPVGIDYVIPKTGFYCKLCSLFYTNEEVAKNTHCSSLPHYQKLKKFLNKLAEERRQKKET
B2: Calpain-2 catalytic subunit (protein, UniProt P17655 20-700, looked up)
Calpain-2 catalytic subunit: SHDRAIKYLNQDYEALRNECLEAGTLFQDPSFPAIPSALGFKELGPYSSKTRGIEWKRPTEICADPQFIIGGATRTDICQGALGDCWLLAAIASLTLNEEILARVVPLNQSFQENYAGIFHFQFWQYGEWVEVVVDDRLPTKDGELLFVHSAEGSEFWSALLEKAYAKINGCYEALSGGATTEGFEDFTGGIAEWYELKKPPPNLFKIIQKALQKGSLLGCSIDITSAADSEAITFQKLVKGHAYSVTGAEEVESNGSLQKLIRIRNPWGEVEWTGRWNDNCPSWNTIDPEERERLTRRHEDGEFWMSFSDFLRHYSRLEICNLTPDTLTSDTYKKWKLTKMDGNWRRGSTAGGCRNYPNTFWMNPQYLIKLEEEDEDEEDGESGCTFLVGLIQKHRRRQRKMGEDMHTIGFGIYEVPEELSGQTNIHLSKNFFLTNRARERSDTFINLREVLNRFKLPPGEYILVPSTFEPNKDGDFCIRVFSEKKADYQAVDDEIEANLEEFDISEDDIDDGFRRLFAQLAGEDAEISAFELQTILRRVLAKRQDIKSDGFSIETCKIMVDMLDSDGSGKLGLKEFYILWTKIQKYQKIYREIDVDRSGTMNSYEMRKALEEAGFKMPCQLHQVIVARFADDQLIIDFDNFVRCLVRLETLFKIFKQLDPENTGTIELDLISWLCFSVL
B3: Hypoxia up-regulated protein 1 (protein, UniProt Q9Y4L1 33-999, looked up)
Hypoxia up-regulated protein 1: LAVMSVDLGSESMKVAIVKPGVPMEIVLNKESRRKTPVIVTLKENERFFGDSAASMAIKNPKATLRYFQHLLGKQADNPHVALYQARFPEHELTFDPQRQTVHFQISSQLQFSPEEVLGMVLNYSRSLAEDFAEQPIKDAVITVPVFFNQAERRAVLQAARMAGLKVLQLINDNTATALSYGVFRRKDINTTAQNIMFYDMGSGSTVCTIVTYQMVKTKEAGMQPQLQIRGVGFDRTLGGLEMELRLRERLAGLFNEQRKGQRAKDVRENPRAMAKLLREANRLKTVLSANADHMAQIEGLMDDVDFKAKVTRVEFEELCADLFERVPGPVQQALQSAEMSLDEIEQVILVGGATRVPRVQEVLLKAVGKEELGKNINADEAAAMGAVYQAAALSKAFKVKPFVVRDAVVYPILVEFTREVEEEPGIHSLKHNKRVLFSRMGPYPQRKVITFNRYSHDFNFHINYGDLGFLGPEDLRVFGSQNLTTVKLKGVGDSFKKYPDYESKGIKAHFNLDESGVLSLDRVESVFETLVEDSAEEESTLTKLGNTISSLFGGGTTPDAKENGTDTVQEEEESPAEGSKDEPGEQVELKEEAEAPVEDGSQPPPPEPKGDATPEGEKATEKENGDKSEAQKPSEKAEAGPEGVAPAPEGEKKQKPARKRRMVEEIGVELVVLDLPDLPEDKLAQSVQKLQDLTLRDLEKQEREKAANSLEAFIFETQDKLYQPEYQEVSTEEQREEISGKLSAASTWLEDEGVGATTVMLKEKLAELRKLCQGLFFRVEERKKWPERLSALDNLLNHSSMFLKGARLIPEMDQIFTEVEMTTLEKVINETWAWKNATLAEQAKLPATEKPVLLSKDIEAKMMALDREVQYLLNKAKFTKPRPRPKDKNGTRAEPPLNASASDQGEKVIPPAGQTEDAEPISEPEKVETGSEPGDTEPLELGGPGAEPEQKEQSTGQKRPLKNDEL
B4: High mobility group protein HMG-I/HMG-Y (protein, UniProt P17096 2-107, looked up)
High mobility group protein …: SESSSKSSQPLASKQEKDGTEKRGRGRPRKQPPVSPGTALVGSQKEPSEVPTPKRPRGRPKGSKNKGAAKTRKTTTTPGRKPRGRPKKLEKEEEEGISQESSEEEQ
B5: Nidogen-1 (protein, UniProt P14543 29-1247, looked up)
Nidogen-1: LSRQELFPFGPGQGDLELEDGDDFVSPALELSGALRFYDRSDIDAVYVTTNGIIATSEPPAKESHPGLFPPTFGAVAPFLADLDTTDGLGKVYYREDLSPSITQRAAECVHRGFPEISFQPSSAVVVTWESVAPYQGPSRDPDQKGKRNTFQAVLASSDSSSYAIFLYPEDGLQFHTTFSKKENNQVPAVVAFSQGSVGFLWKSNGAYNIFANDRESVENLAKSSNSGQQGVWVFEIGSPATTNGVVPADVILGTEDGAEYDDEDEDYDLATTRLGLEDVGTTPFSYKALRRGGADTYSVPSVLSPRRAATERPLGPPTERTRSFQLAVETFHQQHPQVIDVDEVEETGVVFSYNTDSRQTCANNRHQCSVHAECRDYATGFCCSCVAGYTGNGRQCVAEGSPQRVNGKVKGRIFVGSSQVPIVFENTDLHSYVVMNHGRSYTAISTIPETVGYSLLPLAPVGGIIGWMFAVEQDGFKNGFSITGGEFTRQAEVTFVGHPGNLVIKQRFSGIDEHGHLTIDTELEGRVPQIPFGSSVHIEPYTELYHYSTSVITSSSTREYTVTEPERDGASPSRIYTYQWRQTITFQECVHDDSRPALPSTQQLSVDSVFVLYNQEEKILRYALSNSIGPVREGSPDALQNPCYIGTHGCDTNAACRPGPRTQFTCECSIGFRGDGRTCYDIDECSEQPSVCGSHTICNNHPGTFRCECVEGYQFSDEGTCVAVVDQRPINYCETGLHNCDIPQRAQCIYTGGSSYTCSCLPGFSGDGQACQDVDECQPSRCHPDAFCYNTPGSFTCQCKPGYQGDGFRCVPGEVEKTRCQHEREHILGAAGATDPQRPIPPGLFVPECDAHGHYAPTQCHGSTGYCWCVDRDGREVEGTRTRPGMTPPCLSTVAPPIHQGPAVPTAVIPLPPGTHLLFAQTGKIERLPLEGNTMRKTEAKAFLHVPAKVIIGLAFDCVDKMVYWTDITEPSIGRASLHGGEPTTIIRQDLGSPEGIAVDHLGRNIFWTDSNLDRIEVAKLDGTQRRVLFETDLVNPRGIVTDSVRGNLYWTDWNRDNPKIETSYMDGTNRRILVQDDLGLPNGLTFDAFSSQLCWVDAGTNRAECLNPSQPSRRKALEGLQYPFAVTSYGKNLYFTDWKMNSVVALDLAISKETDAFQPHKQTRLYGITTALSQCPQGHNYCSVNNGGCTHLCLATPGSRTCRCPDNTLGVDCIEQK
B6: SWISS-PROT: P34955 (Bos taurus) Alpha-1-antiproteinase precursor (protein, UniProt P34955 25-416, looked up)
Alpha-1-antiproteinase: GVLQGHAVQETDDTSHQEAACHKIAPNLANFAFSIYHHLAHQSNTSNIFFSPVSIASAFAMLSLGAKGNTHTEILKGLGFNLTELAEAEIHKGFQHLLHTLNQPNHQLQLTTGNGLFINESAKLVDTFLEDVKNLYHSEAFSINFRDAEEAKKKINDYVEKGSHGKIVELVKVLDPNTVFALVNYISFKGKWEKPFEMKHTTERDFHVDEQTTVKVPMMNRLGMFDLHYCDKLASWVLLLDYVGNVTACFILPDLGKLQQLEDKLNNELLAKFLEKKYASSANLHLPKLSISETYDLKSVLGDVGITEVFSDRADLSGITKEQPLKVSKALHKAALTIDEKGTEAVGSTFLEAIPMSLPPDVEFNRPFLCILYDRNTKSPLFVGKVVNPTQA
B7: Heterogeneous nuclear ribonucleoproteins A2/B1 (protein, UniProt P22626 1-353, looked up)
Heterogeneous nuclear …: MEKTLETVPLERKKREKEQFRKLFIGGLSFETTEESLRNYYEQWGKLTDCVVMRDPASKRSRGFGFVTFSSMAEVDAAMAARPHSIDGRVVEPKRAVAREESGKPGAHVTVKKLFVGGIKEDTEEHHLRDYFEEYGKIDTIEIITDRQSGKKRGFGFVTFDDHDPVDKIVLQKYHTINGHNAEVRKALSRQEMQEVQSSRSGRGGNFGFGDSRGGGGNFGPGPGSNFRGGSDGYGSGRGFGDGYNGYGGGPGGGNFGGSPGYGGGRGGYGGGGPGYGNQGGGYGGGYDNYGGGNYGSGNYNDFGNYNQQPSNYGPMKSGNFGGSRNMGGPYGGGNYGPGGSGGSGGYGGRSRY
B8: Heterogeneous nuclear ribonucleoproteins C1/C2 (protein, UniProt P07910 2-306, looked up)
Heterogeneous nuclear …: ASNVTNKTDPRSMNSRVFIGNLNTLVVKKSDVEAIFSKYGKIVGCSVHKGFAFVQYVNERNARAAVAGEDGRMIAGQVLDINLAAEPKVNRGKAGVKRSAAEMYGSVTEHPSPSPLLSSSFDLDYDFQRDYYDRMYSYPARVPPPPPIARAVVPSKRQRVSGNTSRRGKSGFNSKSGQRGSSKSGKLKGDDLQAIKKELTQIKQKVDSLLENLEKIEKEQSKQAVEMKNDKSEEEQSSSSVKKDETNVKMESEGGADDSAEEGDLLDDDDNEDRGDDQLELIKDDEKEAEEGEDDRDSANGEDDS

Experiment: Composition of amniotic fluid cell-derived ECM by mass spectrometry (total spectra count)
Conditions: protein component found by mass spectrometry in amniotic fluid cell-derived ECM Matrix A (Example 1)

Molecule | Total Spectra Count Matrix A
B1 | 19
B2 | 19
B3 | 16
B4 | 16
B5 | 16
B6 | 17
B7 | 15
B8 | 18

Same assay, conditions: protein component found by mass spectrometry in amniotic fluid cell-derived ECM Matrix B (Example 1)

Molecule | Total Spectra Count Matrix B
B1 | 46
B2 | 4
B3 | 37
B4 | 52
B5 | 56
B6 | 66
B7 | 58
B8 | 52

Same assay, conditions: protein component found by mass spectrometry in amniotic fluid cell-derived ECM Matrix C (Example 1)

Molecule | Total Spectra Count Matrix C
B1 | 5
B2 | 0
B3 | 0
B4 | 7
B5 | 1
B6 | 19
B7 | 6
B8 | 6

Same assay, conditions: protein component found by mass spectrometry in amniotic fluid cell-derived ECM Matrix D (Example 1)

Molecule | Total Spectra Count Matrix D
B1 | 20
B2 | 8
B3 | 18
B4 | 11
B5 | 7
B6 | 16
B7 | 20
B8 | 22
